Results: the supplement of paper PMC9233669
Variants at the floor of the assay are shown more often than the library holds them.

Assays:
biotinyl-Trp-oxazolone = test: self-aminoacylation, catalytic enhancement (BWO) (fold over background); higher = more active; k-Seq, kA / k0A0; sequences stand for … in GGGAAUGGAUCCACAUCUACGAAUUC…UUCACUGCAGACUUGACGAAGCUG
In short: (§1)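 Each biotinyl-aminoacyl-oxazolone, at 2–1250 μM, was incubated with mutagenized RNA pools (0.43 μM) carrying a 21-nt variable region. The 50 μL reactions contained HEPES/NaCl/KCl/MgCl2/CaCl2 buffer with 5% acetonitrile at pH 6.9–7.0 and ran for 90 minutes at room temperature. After streptavidin capture, RNA was measured by qPCR in triplicate and by Illumina sequencing, and catalytic enhancement was calculated as median kA over the uncatalyzed rate from a pseudo-first-order fit of per-sequence fraction reacted.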

biotinyl-Leu-oxazolone = test: self-aminoacylation, catalytic enhancement (BLO) (fold over background); higher = more active; k-Seq, kA / k0A0; sequences stand for … in GGGAAUGGAUCCACAUCUACGAAUUC…UUCACUGCAGACUUGACGAAGCUG
In short: as §1

biotinyl-Val-oxazolone = test: self-aminoacylation, catalytic enhancement (BVO) (fold over background); higher = more active; k-Seq, kA / k0A0; sequences stand for … in GGGAAUGGAUCCACAUCUACGAAUUC…UUCACUGCAGACUUGACGAAGCUG
In short: as §1

biotinyl-Ile-oxazolone = test: self-aminoacylation, catalytic enhancement (BIO) (fold over background); higher = more active; k-Seq, kA / k0A0; sequences stand for … in GGGAAUGGAUCCACAUCUACGAAUUC…UUCACUGCAGACUUGACGAAGCUG
In short: as §1

biotinyl-Met-oxazolone = test: self-aminoacylation, catalytic enhancement (BMO) (fold over background); higher = more active; k-Seq, kA / k0A0; sequences stand for … in GGGAAUGGAUCCACAUCUACGAAUUC…UUCACUGCAGACUUGACGAAGCUG
In short: as §1

biotinyl-Phe-oxazolone = test: self-aminoacylation, catalytic enhancement (BFO) (fold over background); higher = more active; k-Seq, kA / k0A0; sequences stand for … in GGGAAUGGAUCCACAUCUACGAAUUC…UUCACUGCAGACUUGACGAAGCUG
In short: as §1

| Sequence | self-aminoacylation (biotinyl-Trp-oxazolone) | self-aminoacylation (biotinyl-Leu-oxazolone) | self-aminoacylation (biotinyl-Val-oxazolone) | self-aminoacylation (biotinyl-Ile-oxazolone) | self-aminoacylation (biotinyl-Met-oxazolone) | self-aminoacylation (biotinyl-Phe-oxazolone) |
| --- | --- | --- | --- | --- | --- | --- |
| CCAGACUUCAAACAAUCGGUC [Fam1B.1 aminoacylation ribozyme variant] | 40.2 | 2.19 | 1.5 | 1.36 | 1.39 | 85.8 |
| CCAGACUUCAAGCAAUUGGUC [Fam1B.1 aminoacylation ribozyme variant] | 0.695 | 0.66 | 0.794 | 0.759 | 0.805 | 1.07 |
| CCAUACUCCAAGCAAUCGGUC [Fam1B.1 aminoacylation ribozyme variant] | 1.01 | 0.801 | 1.01 | 1.01 | 0.771 | 1.2 |
| CCAUACUUCAAGCAAUCGGAC [Fam1B.1 aminoacylation ribozyme variant] | 0.768 | 0.856 | 1.06 | 1.01 | 1.17 | 1.21 |
| CCAUACUUCAAGCAAUGGGUC [Fam1B.1 aminoacylation ribozyme variant] | 0.627 | 0.926 | 1 | 1.04 | 0.972 | 0.918 |
| CCAUACUUCAAGCAAUUGGUC [Fam1B.1 aminoacylation ribozyme variant] | 0.625 | 0.667 | 0.762 | 0.743 | 0.689 | 1.13 |
| CCAUACUUCAAGCCAUCGGUC [Fam1B.1 aminoacylation ribozyme variant] | 0.849 | 0.937 | 1.09 | 1.06 | 0.971 | 0.652 |
| CCAUACUUCACGCAAUCGGUC [Fam1B.1 aminoacylation ribozyme variant] | 0.912 | 1.07 | 1.34 | 1.07 | 0.872 | 0.83 |
| CCAUAGUUCAAGCAAUCGGUC [Fam1B.1 aminoacylation ribozyme variant] | 1.11 | 0.903 | 1.02 | 1.06 | 0.883 | 1.4 |
| CCCCACUGCAAGCAAUCGGUC [Fam1B.1 aminoacylation ribozyme variant] | 3.43 | 1.57 | 2.35 | 1.77 | 1.73 | 4.31 |
| CCGCACUUCAAGCAAUCCGUC [Fam1B.1 aminoacylation ribozyme variant] | 1.12 | 1.22 | 1.25 | 1.23 | 0.971 | 1.17 |
| CCGCACUUCAAGCAAUCUGUC [Fam1B.1 aminoacylation ribozyme variant] | 0.546 | 0.35 | 0.414 | 0.437 | 0.49 | 0.915 |
| CCGCACUUCAUGCAAUCGGUC [Fam1B.1 aminoacylation ribozyme variant] | 1.07 | 1.11 | 1.26 | 1.18 | 1.12 | 1.01 |
| CCUCACCUCAAGCAAUCGGUC [Fam1B.1 aminoacylation ribozyme variant] | 2.12 | 0.963 | 1.3 | 1.02 | 0.79 | 4.38 |
| CCUCACUUCAAGCAAGCGGUC [Fam1B.1 aminoacylation ribozyme variant] | 0.921 | 1.07 | 0.996 | 0.84 | 0.882 | 1.15 |
| CCUCACUUCAAGCUAUCGGUC [Fam1B.1 aminoacylation ribozyme variant] | 0.822 | 0.715 | 0.856 | 0.785 | 0.562 | 1.21 |
| CGACACUUCAAGCAAUCCGUC [Fam1B.1 aminoacylation ribozyme variant] | 0.928 | 0.97 | 1.2 | 1.37 | 1.27 | 0.897 |
| CGACUUCACACAAUCGGUCUG [Fam1A.1 aminoacylation ribozyme variant] | 1.01 | 1.23 | 1.14 | 1.05 | 0.934 | 1.07 |
| CUAAUUCAAACAAUCGGACUG [Fam1A.1 aminoacylation ribozyme variant] | 0.816 | 0.451 | 0.464 | 0.555 | 0.43 | 1.19 |
| CUAAUUCAAGCAAUCGGUCUG [Fam1A.1 aminoacylation ribozyme variant] | 0.753 | 0.714 | 0.846 | 0.841 | 0.831 | 1.44 |
| CUAAUUCAGACAAUCGGUCUG [Fam1A.1 aminoacylation ribozyme variant] | 0.611 | 0.623 | 0.672 | 0.641 | 0.751 | 0.523 |
